In PubChem BioAssay AID2685 (National Center for Advancing Translational Sciences (NCATS), 2010):
Some of the results follow. The main result of the screen is listed elsewhere. These columns were measured beside it and carry no call. Most of these compounds were active or inconclusive in the main read-out, so they are no random draw. Words in brackets tell the shape of the fitted curve; partial curves, single points and poor fits give uncertain potencies.

Test: qHTS Assay for Lipid Storage Modulators in Drosophila S3 Cells;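 for cell number change: cells counted by Cell Tracker Red CMTPX staining in the red channel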
Conditions: BODIPY lipid droplet fluorescence, 18-24 h; for cell number change: measured here: cell count max response, cells fed with added oleic acid
How it was run: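 Drosophila S3 cells loaded with oleic acid (400 uM, as added) and compounds at several concentrations; lipid droplets imaged by 488-nm laser-scanning cytometry, 500–530 nm intensity and object ratio to cell channel. Percent activity normalized to 20 uM Triacsin C.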

[1] = measured here: cell number channel AC50, cells fed with added oleic acid
[2] = measured here: lipid fluorescence (Fed channel) AC50, cells fed with added oleic acid

SMILES	cell number change [%]	AC50 [1]	AC50 [2]
O=C(O)c1nn2cc(CCO)cnc2c1Cl	-37.6	29.1 µM [falling, single point]	29.1 µM [falling, single point]
Cc1ccc(-c2nc(CS(=O)CC(=O)NC3CCCC3)c(C)o2)cc1 (stereo unspecified)	-34.1	18.4 µM [falling, single point]	18.4 µM [falling, single point]
CC(=O)c1c(C)n(-c2ccc(Br)cc2)c2ccc(O)cc12	-8.47	–	–
O=C(COC(=O)CNC(=O)c1sc2ccccc2c1Cl)Nc1c(Cl)cc(Cl)cc1Cl	–	6.51 µM [rising, partial curve, poor fit]	5.8 µM [rising, partial curve, poor fit]
COc1ccc(-c2cc(-c3ccccc3O)[nH]n2)cc1	-42.3	14.6 µM [falling, partial curve]	13 µM [falling, partial curve]
COc1cccc(OCCNCc2ccccc2)c1	11.4	–	29.1 µM [rising, single point]
O=C(/C=C/c1ccccc1)Nn1cnnc1	-2.12	–	23.1 µM [falling, partial curve]
COc1ccc(C(=O)Nc2scc(-c3ccc(Cl)cc3Cl)c2C(N)=O)cc1	38	14.6 µM [rising, single point]	–
O=C(Cn1nnc(-c2ccc(Cl)cc2)n1)NCC1CCCCC1	-15	2.31 µM [falling, single point]	–
COc1ccc(-c2cc(=O)[nH][nH]2)cc1	41.7	0.092 µM [rising, full curve, poor fit]	29.1 µM [rising, single point]
CC1C(=O)C(C)(C)C(=O)OC1c1ccc([N+](=O)[O-])cc1 (stereo unspecified)	22.5	0.731 µM [rising, full curve, poor fit]	–
CCN(CC)CCNC(=O)c1cc(Nc2ccc(OC)c(OC)c2)nc2ccccc12	23.6	–	29.1 µM [falling, single point]
CC(C)(C)c1nnc(NC(=O)C2CC(=O)N(CCc3ccc(F)cc3)C2)s1 (stereo unspecified)	18.1	–	29.1 µM [rising, single point]
Cc1ccc(N2C(=O)C(Cl)=C(Nc3c(C)n(C)n(-c4ccccc4)c3=O)C2=O)cc1	35.2	13 µM [rising, single point]	20.6 µM [rising, partial curve]
CC(OC(=O)CN1C(=O)C2CCCCC2C1=O)C(=O)Nc1ncc(Cl)cc1Cl (stereo unspecified)	-18.1	0.82 µM [rising, full curve, poor fit]	0.00517 µM [rising, full curve, poor fit]
COc1ccc(F)cc1CN1CCN(C(=O)CCC(=O)Nc2nnc(C(C)C)s2)CC1	-2.92	–	0.092 µM [falling, full curve, poor fit]
O=C(COC(=O)c1cncc(Br)c1)NCc1ccc(F)cc1	–	0.116 µM [falling, full curve, poor fit]	–
CCOC(=O)C1=C(C)N(C)C(=S)NC1c1ccc(Cl)cc1Cl (stereo unspecified)	-11.9	–	6.51 µM [rising, partial curve, poor fit]
CCN(CC(=O)Nc1ccc(NC(C)=O)cc1)C(=O)C1CCCC1	9.49	–	0.517 µM [rising, partial curve, poor fit]

SMILES	cell number change [%]	AC50 [1]	AC50 [2]
CCN1CN(Cc2ccccc2)CNC1=S	-7.22	–	0.00461 µM [falling, full curve, poor fit]
O=C(CS(=O)(=O)c1ccc(Cl)cc1)NCCS(=O)(=O)c1ccc(Cl)cc1	–	0.731 µM [rising, single point]	–
COc1ccc(/C=N/NS(C)(=O)=O)c(OC)c1	-5.47	–	11.6 µM [rising, partial curve, poor fit]
CCCc1ccc(NS(=O)(=O)c2c(C)oc(C)c2C(=O)OC)cc1	–	–	2.59 µM [rising, partial curve]
Cc1ccc2c(c1)N(CC(=O)N1CCOCC1)C(=O)C(C)O2 (stereo unspecified)	15	–	29.1 µM [rising, single point]
C=C(C)Cn1c(C)cc(C)c(S(=O)(=O)c2ccc(C)cc2)c1=O	–	–	0.116 µM [rising, full curve, poor fit]
Fc1ccc(Nc2nc(N3CCOCC3)nc(N3CCOCC3)n2)cc1Cl	21.5	–	4.11 µM [falling, full curve]
COc1ccccc1CNC(=O)C1COc2ccccc2O1 (stereo unspecified)	–	–	16.4 µM [rising, partial curve]
CCc1nnc(N/N=C\c2ccc(OC(C)=O)c(OC)c2)n1N	-13.1	–	29.1 µM [falling, single point]
N/C(=N\NC(=O)c1cccs1)c1cc2ccccc2oc1=O	18.9	0.731 µM [rising, full curve, poor fit]	–
CC1CCCC(C)N1C(=O)c1ccc(S(=O)(=O)N2CCCC2)cc1 (stereo unspecified)	-31.6	4.11 µM [falling, partial curve, poor fit]	–
CC(C)CC(=O)NC(=S)NNC(=O)c1cccc([N+](=O)[O-])c1	8.79	–	14.6 µM [rising, single point]
C=CCOc1nc2c(c(=O)n(Cc3ccc(Cl)cc3)c(=O)n2C)n1C	2.37	–	0.366 µM [rising, full curve, poor fit]
Cc1ccc(CSc2nc3c(cc2C#N)CCC3)cc1	10.8	–	13 µM [rising, single point]
COc1cccc(/C=N/Nc2ncnc3scc(-c4ccccc4)c23)c1O	-23.1	–	29.1 µM [falling, single point]
Cc1ccccc1CSc1nnnn1-c1ccc(C(N)=O)cc1	23.9	–	4.11 µM [rising, full curve]
Cc1ccc(NC(=O)Nc2cccc3ccccc23)cc1	-12.9	–	–
CCn1cc(C(=O)N2CCc3ccccc3C2)c(=O)c2cc(S(=O)(=O)N3CCCCC3)ccc21	8.94	–	0.82 µM [falling, single point]
CCn1c(/C=C/c2ccccc2C)nc2ccccc2c1=O	-12.5	0.164 µM [falling, full curve, poor fit]	0.116 µM [falling, full curve, poor fit]

Rewritten bar-delimited: part of the list above
SMILES | cell number change [%] | AC50 [1] | AC50 [2]
COc1cccc(OCCNCc2ccccc2)c1 | 11.4 | – | 29.1 µM [rising, single point]
CC1C(=O)C(C)(C)C(=O)OC1c1ccc([N+](=O)[O-])cc1 (stereo unspecified) | 22.5 | 0.731 µM [rising, full curve, poor fit] | –
